Results published in paper PMC7819943, “Rice protein-binding microarrays: a tool to detect cis-acting elements near promoter regions in rice”.
The other results are listed elsewhere or left out.

Target: T1, OsSMF1 (Oryza sativa, UniProt Q6ZLB0 1-436)
T1 sequence: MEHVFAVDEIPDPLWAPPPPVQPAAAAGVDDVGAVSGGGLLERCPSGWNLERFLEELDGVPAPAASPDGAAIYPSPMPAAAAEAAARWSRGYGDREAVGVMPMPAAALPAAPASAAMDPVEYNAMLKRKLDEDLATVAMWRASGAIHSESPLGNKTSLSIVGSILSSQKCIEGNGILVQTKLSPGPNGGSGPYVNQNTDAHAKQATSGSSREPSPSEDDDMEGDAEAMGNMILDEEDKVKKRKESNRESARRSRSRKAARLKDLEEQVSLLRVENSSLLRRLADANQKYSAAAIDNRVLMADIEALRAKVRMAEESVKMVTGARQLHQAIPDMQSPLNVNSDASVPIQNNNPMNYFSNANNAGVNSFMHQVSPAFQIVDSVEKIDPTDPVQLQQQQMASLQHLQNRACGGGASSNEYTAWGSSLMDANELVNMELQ
Test: protein-binding microarray (RPBM); PBS, 2% BSA, 51.3 ng/ul salmon testes DNA, 50 uM zinc acetate, 200 nM TF, 25 C, 1 h; high values mean tight binding
Conditions: protein: recombinant; tags: N-terminal polyhistidine and DsRed monomer fusion (pET32a); chain copies: 2; label: CyDye5-dUTP incorporated in the synthesized complementary strand; 3' TTTTT single-stranded linker to array surface; dsDNA, one strand shown
How it was run: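 In PBS with 2% BSA, salmon testes DNA and 50 µM zinc acetate, 200 nM protein was incubated on a custom Agilent array at 25 °C for 1 h and then washed off. The array had been made double-stranded by primer extension with Cy5-dUTP and blocked with 2% BSA. The proteins were transcription factors fused N-terminally to polyhistidine and DsRed, expressed in E. coli BL21-CodonPlus and purified on Ni–NTA. The binding signal is per-feature fluorescence intensity (arbitrary units) from an Axon 4000B scanner.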

Sequence	binding signal
CAGCTCACATTGCCACGTAAGCGCCATGTCAATGCCACATCGGAGTCACCTAGTGCAG	10200 fluorescence intensity (a.u.)
TATCCATGGTGTTTAACAATATATCACTGGATACACGTGTCGGAGTCACCTAGTGCAG	9700 fluorescence intensity (a.u.)
TTTTACGTCGTCCGATCCGTCCATTGCTCCATTGCTGACGCGGAGTCACCTAGTGCAG	4630 fluorescence intensity (a.u.)
TGTTTCCTGCTAAAATTGACACGCACTTGATTTAGTGATTCGGAGTCACCTAGTGCAG	14300 fluorescence intensity (a.u.)
TACCACTATCGGAAGTTTTGGTTGTGACGTCCACAATTCCCGGAGTCACCTAGTGCAG	3760 fluorescence intensity (a.u.)
CTCATGTCCCTTTATGCCATGCTGACAAGGCCTCCAAGGACGGAGTCACCTAGTGCAG	4280 fluorescence intensity (a.u.)
CACATGTCAGTATGTCACGAGGCTCGTGACCCCAGGATGTCGGAGTCACCTAGTGCAG	3710 fluorescence intensity (a.u.)
CGTGGCTGTCAAGGGCTCCACGTAAGCATCCCATAAGGCACGGAGTCACCTAGTGCAG	17200 fluorescence intensity (a.u.)
AGCAGACAGATCGTATGCCCCGTCATGGGTACAGAGAAGTCGGAGTCACCTAGTGCAG	6600 fluorescence intensity (a.u.)
TCTGTGTGCAAAGAAAATGATGTCACTTTCTGTTTGTCCACGGAGTCACCTAGTGCAG	15900 fluorescence intensity (a.u.)
ACACAAAGTGGGCTCCACCGGAGGGAGCGCCACGACGGCACGGAGTCACCTAGTGCAG	4540 fluorescence intensity (a.u.)
TAAGTGGTTCACCGCCATGTGTAAGTCAGATTATCCACATCGGAGTCACCTAGTGCAG	3550 fluorescence intensity (a.u.)
GCGCCTCTACACCGCGCTCGTCATCCTTCCGCCGCCGCTCCGGAGTCACCTAGTGCAG	5300 fluorescence intensity (a.u.)
CATAAAAGGTGGCATTGACTCACGAACCCTGCGACTGCGTCGGAGTCACCTAGTGCAG	5300 fluorescence intensity (a.u.)
GGGGTACCGCAGCATGGACGACTACTACGATACGCTTGACCGGAGTCACCTAGTGCAG	31900 fluorescence intensity (a.u.)
TTTGCATCTGCATCTATTTGGACCGGTCCAGCCCATCTCACGGAGTCACCTAGTGCAG	3230 fluorescence intensity (a.u.)
AGTTGAGCTCCTTGTCATTGATGAAGCTGCTGCTATTCCACGGAGTCACCTAGTGCAG	3740 fluorescence intensity (a.u.)
TTTAGAATACTGCTCATACGTCAGTAACAAAGTCACACGACGGAGTCACCTAGTGCAG	3880 fluorescence intensity (a.u.)
TCTCGGCAGAAACTGTCACTGACATGTGGTCCCATTCTCTCGGAGTCACCTAGTGCAG	3170 fluorescence intensity (a.u.)
TGCAGCAGGAGATCGATCGATCGATCGATCCAACCGAATGCGGAGTCACCTAGTGCAG	3260 fluorescence intensity (a.u.)
TTTGGATACATGGAACGGGTGCATTGGGTTGCCTGCCTCACGGAGTCACCTAGTGCAG	4090 fluorescence intensity (a.u.)
TGCTGCTCTCGCGCGCTGTGCGGTTGTCACACACACTTTTCGGAGTCACCTAGTGCAG	4080 fluorescence intensity (a.u.)
GCTGCTGCTGCTTGCTCTTGCTCTTGCTGCTGGGTGGAGTCGGAGTCACCTAGTGCAG	20400 fluorescence intensity (a.u.)
CTTAGGGTCGGGAAGGGGAGAGGCGGTGGCGGGCGGCTGACGGAGTCACCTAGTGCAG	3890 fluorescence intensity (a.u.)
GACGACGACGTGGCCTCCATCTGCACCGTCGGTTGCCTCACGGAGTCACCTAGTGCAG	6420 fluorescence intensity (a.u.)
AACCATGTCACTGCTCTAAACTCGCCTTTTGTTGACTTGGCGGAGTCACCTAGTGCAG	3690 fluorescence intensity (a.u.)
CTGAACATGTTGTTCAGTTGGCCTCGTTTTCTCACCTTTGCGGAGTCACCTAGTGCAG	3190 fluorescence intensity (a.u.)

Sequence	binding signal
CCAGCACAGCCGACGGCGATCTCTTGTGTTTCCAGCGTGACGGAGTCACCTAGTGCAG	3590 fluorescence intensity (a.u.)
AGGATGGATACATGGAAGGAAGGATGGTGGTACATGACATCGGAGTCACCTAGTGCAG	3800 fluorescence intensity (a.u.)
CCAGGCGTCGCCGAGCTCTGCTCCGTCGTGTCAGCTTCTTCGGAGTCACCTAGTGCAG	4590 fluorescence intensity (a.u.)
GCGCGGGAACGCCATGCAGGGGAGAACGTGGCGGGAGCGGCGGAGTCACCTAGTGCAG	4290 fluorescence intensity (a.u.)
CCTCCTCGTTGGCATCTTGATGACCTGCGATACCCTTGCCCGGAGTCACCTAGTGCAG	3440 fluorescence intensity (a.u.)
GGTTAGGCCACGTGGGTGATCGTGTCTGCCTCAAGTCTCTCGGAGTCACCTAGTGCAG	10900 fluorescence intensity (a.u.)
CGGCGACGACGTGGAGCGCGGCAGGAAGTAGCCACGCGCACGGAGTCACCTAGTGCAG	5120 fluorescence intensity (a.u.)
CGGCACGGTGGGCCAACCCGGCACGACATGAACGTCAGGGCGGAGTCACCTAGTGCAG	3450 fluorescence intensity (a.u.)
GTCTACCAACCATGACAATGATCAATTGGGTGTGACTGAGCGGAGTCACCTAGTGCAG	5010 fluorescence intensity (a.u.)
AAATAAGCAAACTACAGTGACTACTCTGCACTGGCAGTTTCGGAGTCACCTAGTGCAG	3190 fluorescence intensity (a.u.)
ACCATATGGCGATATTTATTAATTAGCCTGACAAGACGTACGGAGTCACCTAGTGCAG	23500 fluorescence intensity (a.u.)
AGCCGTCAAGCCCCGTTGGCTGACCCATCTCATATCTTCACGGAGTCACCTAGTGCAG	4110 fluorescence intensity (a.u.)
AATTATAACAATATGCACGGCCTCACACACCACAACATCCCGGAGTCACCTAGTGCAG	3220 fluorescence intensity (a.u.)
ATTCCATCCCAAAACAGTGTGGTGGTGTGGCTTGGATGGGCGGAGTCACCTAGTGCAG	3320 fluorescence intensity (a.u.)
AGCGCTGACCGTGAGTCCGTGAAGCGTCAGTGCCCAATGGCGGAGTCACCTAGTGCAG	5040 fluorescence intensity (a.u.)
CAGATTTAAGCAGGTCATCTCCACTGCACATACTACTCAACGGAGTCACCTAGTGCAG	3240 fluorescence intensity (a.u.)
GAGAGAGAGGGAGGCGGAGACCCGTCACCATCGCACCACACGGAGTCACCTAGTGCAG	3980 fluorescence intensity (a.u.)
GGCGTCGACGCGTGGCCTCGACGTGGCAGCGCCGAACCGACGGAGTCACCTAGTGCAG	13200 fluorescence intensity (a.u.)
CTCTCGTTGAGGTCAAGCAGCCAAAGCCGTCATGTGGCATCGGAGTCACCTAGTGCAG	3500 fluorescence intensity (a.u.)
CTAGTCTCCTTAAAACTTACTCACATGTCACATGGGTGCACGGAGTCACCTAGTGCAG	3480 fluorescence intensity (a.u.)
TTCAGCCGGGGAAACACATGTGACTACCAGGCTGTAGCGCCGGAGTCACCTAGTGCAG	3480 fluorescence intensity (a.u.)
TAGCAGGTTTCCTGCCAACTTGGCACACTTGCTTCGTGGTCGGAGTCACCTAGTGCAG	3620 fluorescence intensity (a.u.)
TCTTTATGAAGTCCTTGTCACAGTTGATGACTTGCTTAATCGGAGTCACCTAGTGCAG	3650 fluorescence intensity (a.u.)
AGCCTACTCGAGAACAATGTCAGGATAATCATCCTAATGGCGGAGTCACCTAGTGCAG	3600 fluorescence intensity (a.u.)
TGACGCCGGTGGGTTTGTGTGTTAGTGTGACATATGTGTGCGGAGTCACCTAGTGCAG	3720 fluorescence intensity (a.u.)
AAGAGCCAGCTCAACATGATGCTTGGTCTGTCCAGGGCCCCGGAGTCACCTAGTGCAG	3980 fluorescence intensity (a.u.)
GTTGTAGGCTGACGCAACTGCAATGGCAACATATCCGCTGCGGAGTCACCTAGTGCAG	4300 fluorescence intensity (a.u.)

As entered above.
ATTCCATCCCAAAACAGTGTGGTGGTGTGGCTTGGATGGGCGGAGTCACCTAGTGCAG | binding signal: 3320 fluorescence intensity (a.u.)
CAGATTTAAGCAGGTCATCTCCACTGCACATACTACTCAACGGAGTCACCTAGTGCAG | binding signal: 3240 fluorescence intensity (a.u.)
AGGATGGATACATGGAAGGAAGGATGGTGGTACATGACATCGGAGTCACCTAGTGCAG | binding signal: 3800 fluorescence intensity (a.u.)
